{"sequences": {"note": "By UniProt entry, the sequences of proteins in these tests, tags left out. Residues count along the entry.", "UniProt P01012, residues 2-386": "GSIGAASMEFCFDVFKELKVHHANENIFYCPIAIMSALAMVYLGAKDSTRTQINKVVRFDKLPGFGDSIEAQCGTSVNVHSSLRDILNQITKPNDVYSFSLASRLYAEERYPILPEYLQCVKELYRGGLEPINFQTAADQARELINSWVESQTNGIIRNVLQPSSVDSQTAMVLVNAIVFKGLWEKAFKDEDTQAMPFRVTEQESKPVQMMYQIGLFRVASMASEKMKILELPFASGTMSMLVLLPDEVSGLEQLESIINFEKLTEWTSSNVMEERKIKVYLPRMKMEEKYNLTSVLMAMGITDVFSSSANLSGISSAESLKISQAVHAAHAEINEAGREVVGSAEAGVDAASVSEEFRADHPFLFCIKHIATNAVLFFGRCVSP"}, "source": "patent US20050181997A1", "key": {"[1]": {"biological_target": "ovalbumin (immobilised: ovalbumin-Sepharose / ovalbumin gel affinity column, Sigma) (UniProt P01012)", "assay": "affinity capture on ovalbumin-Sepharose, elution with 200 mM trehalose"}, "[2]": {"biological_target": "ovalbumin (immobilised: ovalbumin-Sepharose / ovalbumin gel affinity column, Sigma) (UniProt P01012)", "assay": "affinity chromatography on ovalbumin gel, elution with 200 mM trehalose"}}, "note": "No constants are given. Whether binding was seen depends on the method and setting. Some entries that bind do so weakly or less than the wild type.", "data": [{"binder": "recombinant Pv-FRIL from transgenic tobacco (product of pM-SpPv-FRIL) (protein) AQSLSFNFTKFDLDQKDLIFQGDATSTNNVLQLTKLDSGGNPVGASVGRVLFSAPFHLWENSMAVSSFETNLTIQISTPHPYYAADGFAFFLAPHDTVIPPNSWGKFLGLYSNVFRNSPTSENQSFGDVNTDSRVVAVEFDTFPNANIDPNYRHIGIDVNSIKSKETARWEWQNGKTATARISYNSASKKSTVTTFYPGMEVVALSHDVDLHAELPEWVRVGLSASTGEEKQKNTIISWSFTSSLKNNEVKEPKEDMYIANVVRSYTWINDVLSYISNK", "values": [{"measurement": "binding", "setting": "[1]", "result": "binds"}]}, {"binder": "YamFRIL from Sphenostylis stenocarpa (yam bean) (protein) AQSVSFTFTKFDSDQKDLMFQGHTISSSNVIQLTKLDSNGNPVSTSVGRVLYSAPLRLWESSTVVSTFETTFTFQISTPYTSPPGDGLAFFLAPYDTVIPPNSAGNLLGLFPNLNALRNSTTSKETTIDVNAASNNVVAVEFDTYPNDNIGDPRYKHIGIDVNSIRSKATVAWDWQNGKTATAHISYNSASKRLSVTTFYPGGKAVSLSHDVELTQVLPQWIRVGFSASTGLEK", "values": [{"measurement": "binding", "setting": "[2]", "result": "binds"}]}]}
